Laboratory results reported in article PMC12712735.

Amino acid sequences for entries named in this document (tags omitted). A change or cut given only in a name is not applied to a line headed by its entry.
UniProt P24347: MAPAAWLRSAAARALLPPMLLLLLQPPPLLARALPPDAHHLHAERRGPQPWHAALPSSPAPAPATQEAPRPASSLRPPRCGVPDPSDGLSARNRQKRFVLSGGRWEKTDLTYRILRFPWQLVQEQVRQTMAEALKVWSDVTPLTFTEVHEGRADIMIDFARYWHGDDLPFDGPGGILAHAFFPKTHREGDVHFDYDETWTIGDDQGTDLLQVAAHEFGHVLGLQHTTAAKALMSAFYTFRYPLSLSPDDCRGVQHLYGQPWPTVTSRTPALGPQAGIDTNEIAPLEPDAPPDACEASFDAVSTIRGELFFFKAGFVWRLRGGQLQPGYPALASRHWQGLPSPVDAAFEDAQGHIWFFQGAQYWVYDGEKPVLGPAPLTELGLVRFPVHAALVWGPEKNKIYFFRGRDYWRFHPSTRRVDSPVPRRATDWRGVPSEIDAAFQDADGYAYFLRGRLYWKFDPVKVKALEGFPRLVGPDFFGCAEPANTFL
UniProt P08253: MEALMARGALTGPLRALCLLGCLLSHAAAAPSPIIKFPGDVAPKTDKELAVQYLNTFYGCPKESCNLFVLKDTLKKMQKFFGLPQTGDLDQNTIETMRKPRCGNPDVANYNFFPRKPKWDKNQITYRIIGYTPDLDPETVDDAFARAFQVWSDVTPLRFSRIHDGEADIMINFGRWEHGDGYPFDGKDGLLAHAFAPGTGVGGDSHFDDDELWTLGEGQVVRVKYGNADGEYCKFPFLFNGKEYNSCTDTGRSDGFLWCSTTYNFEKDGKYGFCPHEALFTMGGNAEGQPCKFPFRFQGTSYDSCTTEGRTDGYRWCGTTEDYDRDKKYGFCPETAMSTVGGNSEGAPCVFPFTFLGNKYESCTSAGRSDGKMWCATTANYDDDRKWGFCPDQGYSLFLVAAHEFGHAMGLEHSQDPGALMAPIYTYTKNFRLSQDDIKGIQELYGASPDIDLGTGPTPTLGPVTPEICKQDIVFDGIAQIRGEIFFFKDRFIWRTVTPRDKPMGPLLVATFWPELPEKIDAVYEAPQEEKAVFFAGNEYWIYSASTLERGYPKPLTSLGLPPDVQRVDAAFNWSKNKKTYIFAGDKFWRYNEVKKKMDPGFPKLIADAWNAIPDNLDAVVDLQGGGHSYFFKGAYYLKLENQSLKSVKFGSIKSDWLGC
UniProt P14780: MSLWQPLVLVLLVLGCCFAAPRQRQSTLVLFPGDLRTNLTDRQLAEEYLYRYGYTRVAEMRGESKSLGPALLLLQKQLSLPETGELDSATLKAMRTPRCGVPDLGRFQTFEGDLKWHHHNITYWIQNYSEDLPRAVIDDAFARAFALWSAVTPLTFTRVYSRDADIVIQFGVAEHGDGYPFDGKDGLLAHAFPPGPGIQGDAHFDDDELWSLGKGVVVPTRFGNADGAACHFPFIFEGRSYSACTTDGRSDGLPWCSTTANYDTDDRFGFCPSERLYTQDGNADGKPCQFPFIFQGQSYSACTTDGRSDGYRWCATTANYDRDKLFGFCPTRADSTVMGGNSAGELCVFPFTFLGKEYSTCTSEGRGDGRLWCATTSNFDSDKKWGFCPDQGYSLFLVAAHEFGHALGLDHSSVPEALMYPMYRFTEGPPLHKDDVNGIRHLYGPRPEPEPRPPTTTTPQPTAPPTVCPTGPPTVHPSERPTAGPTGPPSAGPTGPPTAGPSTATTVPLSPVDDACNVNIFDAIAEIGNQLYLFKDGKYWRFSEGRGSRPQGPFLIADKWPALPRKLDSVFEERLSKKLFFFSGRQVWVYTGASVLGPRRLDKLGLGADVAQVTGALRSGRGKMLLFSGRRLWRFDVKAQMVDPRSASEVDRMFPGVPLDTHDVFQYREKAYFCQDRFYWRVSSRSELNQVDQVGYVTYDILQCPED

Target: T1, FLAG-tagged serglycin (SRGN) (UniProt P10124)
T1 sequence: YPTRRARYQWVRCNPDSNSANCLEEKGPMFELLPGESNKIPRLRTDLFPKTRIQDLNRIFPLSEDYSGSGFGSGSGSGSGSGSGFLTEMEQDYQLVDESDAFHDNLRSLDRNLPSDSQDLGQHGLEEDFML
Assay: co-IP; HEK293T cells transfected with SRGN-Flag for 48 h; cell lysates incubated with anti-Flag beads; immunoblot with anti-Flag, anti-MMP11, anti-MMP9 and anti-MMP2; IP/Co-IP kit (ThermoFisher 88805)

Substance | binding
MMP11 (from UniProt P24347) (enzyme) | no binding
matrix metalloproteinase 2 (MMP2) (from UniProt P08253) (enzyme) | binds
matrix metalloproteinase 9 (MMP9) (from UniProt P14780) (enzyme) | binds

These are yes or no findings as the source states them, for the method shown. In cells and extracts the contact can be indirect. A result given as binding can be weak or reduced; the word gives no strength. Sequences can lack the tags named with a protein.
